PubChem BioAssay AID1671195 | Yale University, 2021
In all, the deposit lists about 22,000 reagents; below is a random part of them. About 1,510 of all reagents (6.9%) were called active. 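Active includes knockdowns raising or lowering LDL uptake; positive z-scores mean more uptake, negative mean less.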

Screen: 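Regulators of LDL receptor activity judged by labelled LDL uptake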 (primary screen)
Cells: human Huh7 hepatoma cells
Reagent: siRNA pool against human genes, 18 nM
Duration: about 2 to 2.5 days of knockdown, then 8 h LDL uptake
Conditions: DiI-labelled LDL at 30 µg/ml for 8 h, in lipoprotein-deficient serum medium
Detection: 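Fluorescent LDL signal imaged in cells, scaled to the plate median, robust z-score for each replicate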
Reading the numbers: robust z-score: higher = more LDL uptake after knockdown
Rule for the call: 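a gene counts as active if at least two replicate z-scores exceed ±2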

HKDC1 (hexokinase domain containing 1)
- robust z-score, replicate 1: 2.27
- robust z-score, replicate 2: 3.22
- robust z-score, replicate 3: 2.35
- call: active

TAB3 (TGF-beta activated kinase 1 (MAP3K7) binding protein 3)
- robust z-score, replicate 1: -1.32
- robust z-score, replicate 2: -0.701
- robust z-score, replicate 3: -0.965
- call: inactive

CDH3 (cadherin 3)
- robust z-score, replicate 1: -0.558
- robust z-score, replicate 2: -1.03
- robust z-score, replicate 3: -0.643
- call: inactive

CCDC107 (coiled-coil domain containing 107)
- robust z-score, replicate 1: -0.935
- robust z-score, replicate 2: -1.33
- robust z-score, replicate 3: -1.17
- call: inactive

SCRN3 (secernin 3)
- robust z-score, replicate 1: -0.758
- robust z-score, replicate 2: 0.708
- robust z-score, replicate 3: 0.645
- call: inactive

LINC01620 (long independently transcribed non-coding RNA 1620)
- robust z-score, replicate 1: 2.33
- robust z-score, replicate 2: 3.73
- robust z-score, replicate 3: 2.75
- call: active

RPUSD2 (RNA pseudouridine synthase domain containing 2)
- robust z-score, replicate 1: 0.732
- robust z-score, replicate 2: 1.39
- robust z-score, replicate 3: 0.964
- call: inactive

UVSSA (UV stimulated scaffold protein A)
- robust z-score, replicate 1: 0.862
- robust z-score, replicate 2: -0.564
- robust z-score, replicate 3: -0.875
- call: inactive

PHF3 (PHD finger protein 3)
- robust z-score, replicate 1: 1.84
- robust z-score, replicate 2: 0.303
- robust z-score, replicate 3: 1.94
- call: inactive

GSDMC (gasdermin C)
- robust z-score, replicate 1: 0.0532
- robust z-score, replicate 2: -0.811
- robust z-score, replicate 3: -0.374
- call: inactive

TRMT1L (tRNA methyltransferase 1L)
- robust z-score, replicate 1: -0.0938
- robust z-score, replicate 2: 0.119
- robust z-score, replicate 3: -0.424
- call: inactive

SCARA5 (scavenger receptor class A member 5)
- robust z-score, replicate 1: -1.06
- robust z-score, replicate 2: -0.86
- robust z-score, replicate 3: -1.58
- call: inactive

CFLAR (CASP8 and FADD like apoptosis regulator)
- robust z-score, replicate 1: -1.12
- robust z-score, replicate 2: -0.593
- robust z-score, replicate 3: -0.688
- call: inactive

TNNC2 (troponin C2, fast skeletal type)
- robust z-score, replicate 1: -1.9
- robust z-score, replicate 2: -1.2
- robust z-score, replicate 3: -1.83
- call: inactive

LOC402230
- robust z-score, replicate 1: -0.888
- robust z-score, replicate 2: 0.298
- robust z-score, replicate 3: 0.0177
- call: inactive

Continued; the last 2 above are carried over.
TNNC2 (troponin C2, fast skeletal type)
- robust z-score, replicate 1: -1.9
- robust z-score, replicate 2: -1.2
- robust z-score, replicate 3: -1.83
- call: inactive

LOC402230
- robust z-score, replicate 1: -0.888
- robust z-score, replicate 2: 0.298
- robust z-score, replicate 3: 0.0177
- call: inactive

C6orf89 (chromosome 6 open reading frame 89)
- robust z-score, replicate 1: -0.473
- robust z-score, replicate 2: -0.627
- robust z-score, replicate 3: -0.484
- call: inactive

SKP2 (S-phase kinase associated protein 2)
- robust z-score, replicate 1: -1.36
- robust z-score, replicate 2: -0.981
- robust z-score, replicate 3: -1.49
- call: inactive

ZNF628 (zinc finger protein 628)
- robust z-score, replicate 1: -1.2
- robust z-score, replicate 2: -1.56
- robust z-score, replicate 3: -0.805
- call: inactive

LOC339351 (retired record)
- robust z-score, replicate 1: -1.04
- robust z-score, replicate 2: -1.18
- robust z-score, replicate 3: -1.03
- call: inactive

OBSL1 (obscurin like cytoskeletal adaptor 1)
- robust z-score, replicate 1: -0.525
- robust z-score, replicate 2: 1.79
- robust z-score, replicate 3: -1.49
- call: inactive

KRT77 (keratin 77)
- robust z-score, replicate 1: -0.0212
- robust z-score, replicate 2: 0.178
- robust z-score, replicate 3: 0.082
- call: inactive

LOC391437 (retired record)
- robust z-score, replicate 1: -0.258
- robust z-score, replicate 2: -0.68
- robust z-score, replicate 3: -0.643
- call: inactive

LOC441098 (retired record)
- robust z-score, replicate 1: -1.07
- robust z-score, replicate 2: -1.32
- robust z-score, replicate 3: -1.52
- call: inactive

TFB1M (transcription factor B1, mitochondrial)
- robust z-score, replicate 1: 1.95
- robust z-score, replicate 2: 2.54
- robust z-score, replicate 3: 1.84
- call: inactive
